Results as given in article PMC6355983, “Structure of the Large Extracellular Loop of FtsX and Its Interaction with the Essential Peptidoglycan Hydrolase PcsB in Streptococcus pneumoniae” (mBio, 2019).
No constants are given. Whether binding was seen depends on the method and setting. Some entries that bind do so weakly or less than the wild type.

Sequences of proteins named here, by UniProt entry; tags and fusion partners are left off. A change or cut given only in a name is not applied to a line headed by its entry. Residues count along the entry.
UniProt A0A0H2US70: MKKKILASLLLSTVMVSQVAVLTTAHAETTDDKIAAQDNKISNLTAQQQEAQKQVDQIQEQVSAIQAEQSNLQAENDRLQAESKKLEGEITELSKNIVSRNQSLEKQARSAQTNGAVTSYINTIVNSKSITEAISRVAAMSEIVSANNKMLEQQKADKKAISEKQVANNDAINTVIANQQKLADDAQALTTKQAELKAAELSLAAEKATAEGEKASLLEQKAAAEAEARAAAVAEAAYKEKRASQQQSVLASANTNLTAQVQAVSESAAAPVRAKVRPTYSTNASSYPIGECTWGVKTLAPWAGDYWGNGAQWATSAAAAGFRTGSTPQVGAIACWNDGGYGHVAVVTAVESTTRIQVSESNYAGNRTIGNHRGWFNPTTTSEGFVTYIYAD
PcsB coiled-coil domain, PscBCC(47–254): residues 47-254 of A0A0H2US70

Tests used:
[1] = molecular target: T1, FtsX large extracellular loop 1 (FtsX_(ECL1)), residues 46 to 168 (Streptococcus pneumoniae) (UniProt Q04LE4); assay: NMR titration; 1H-15N HSQC; 50 µM 15N-labelled FtsX_(ECL1) with unlabelled PscBCC(47–267) added (0, 50, 100, 200, 400 µM); 298 K; 50 mM potassium phosphate, pH 7.0, 50 mM NaCl, 10% D2O; both purified
T1 sequence: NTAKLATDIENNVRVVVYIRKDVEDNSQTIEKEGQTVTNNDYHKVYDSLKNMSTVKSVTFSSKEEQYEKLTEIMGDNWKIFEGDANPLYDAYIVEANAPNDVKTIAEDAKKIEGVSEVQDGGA

[2] = molecular target: PcsB coiled-coil domain, PscBCC(47–254) (Streptococcus pneumoniae); assay: NMR titration; reciprocal 1H-15N HSQC; 50 µM 15N-labelled PscBCC(47–254) with 1, 2 and 4 molar equivalents of unlabelled FtsX_(ECL1); both purified

Q: “PcsB coiled-coil domain, PscBCC(47–267) (from UniProt A0A0H2US70 47-267) (domain or fragment)” was tested. Which binding [1] did it give?
A: binds

B1: FtsX large extracellular loop 1 (FtsX_(ECL1)), residues 46 to 168 (domain or fragment, Streptococcus pneumoniae, UniProt Q04LE4 46-168, looked up)
chain: T1 sequence
notes: FtsX, Streptococcus pneumoniae, large extracellular loop (ECL1), residues 46 to 168; Uniformly 15N-labelled when observed by NMR, unlabelled when added to 15N PcsBCC(47-254) and in ITC; also called wild-type (WT) FtsX_(ECL1); Spn ECL1; source: E. coli strain derived from BL21(DE3); LB or M9 minimal medium with 15NH4Cl
Q: B1 was tested. Which binding [2] did it give?
A: binds
